The supplement of paper PMC10849652
Some of the results follow.

Amino acid sequences for entries named in this document (tags omitted). A change or cut given only in a name is not applied to a line headed by its entry.
UniProt P50995, whole entry, looked up: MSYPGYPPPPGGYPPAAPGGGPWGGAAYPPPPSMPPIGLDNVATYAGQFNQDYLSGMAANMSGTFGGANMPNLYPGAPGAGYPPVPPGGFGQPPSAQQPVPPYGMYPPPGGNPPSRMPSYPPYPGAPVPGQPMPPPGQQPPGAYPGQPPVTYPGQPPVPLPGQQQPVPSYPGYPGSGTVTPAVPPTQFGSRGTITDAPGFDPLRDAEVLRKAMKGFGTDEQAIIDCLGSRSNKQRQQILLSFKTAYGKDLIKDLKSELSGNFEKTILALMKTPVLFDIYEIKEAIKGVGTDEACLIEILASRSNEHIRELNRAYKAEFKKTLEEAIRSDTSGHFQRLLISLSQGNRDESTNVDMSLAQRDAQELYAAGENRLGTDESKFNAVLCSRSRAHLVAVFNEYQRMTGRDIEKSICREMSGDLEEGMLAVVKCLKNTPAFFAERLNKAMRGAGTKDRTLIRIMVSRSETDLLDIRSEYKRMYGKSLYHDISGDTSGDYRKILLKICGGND
UniProt P48444: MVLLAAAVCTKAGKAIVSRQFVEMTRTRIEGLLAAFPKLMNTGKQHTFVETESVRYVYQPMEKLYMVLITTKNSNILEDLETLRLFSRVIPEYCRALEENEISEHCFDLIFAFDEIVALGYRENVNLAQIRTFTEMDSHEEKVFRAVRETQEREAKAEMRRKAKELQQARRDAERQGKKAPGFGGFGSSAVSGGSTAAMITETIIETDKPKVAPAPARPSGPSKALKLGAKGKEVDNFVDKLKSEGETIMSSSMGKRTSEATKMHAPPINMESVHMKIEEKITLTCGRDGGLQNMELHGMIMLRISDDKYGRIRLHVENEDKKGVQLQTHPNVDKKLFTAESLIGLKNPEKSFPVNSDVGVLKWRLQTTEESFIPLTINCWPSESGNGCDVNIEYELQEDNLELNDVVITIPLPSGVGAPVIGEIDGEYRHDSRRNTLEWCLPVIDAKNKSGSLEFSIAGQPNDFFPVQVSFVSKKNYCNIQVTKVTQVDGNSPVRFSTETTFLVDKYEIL
UniProt Q9BXS5: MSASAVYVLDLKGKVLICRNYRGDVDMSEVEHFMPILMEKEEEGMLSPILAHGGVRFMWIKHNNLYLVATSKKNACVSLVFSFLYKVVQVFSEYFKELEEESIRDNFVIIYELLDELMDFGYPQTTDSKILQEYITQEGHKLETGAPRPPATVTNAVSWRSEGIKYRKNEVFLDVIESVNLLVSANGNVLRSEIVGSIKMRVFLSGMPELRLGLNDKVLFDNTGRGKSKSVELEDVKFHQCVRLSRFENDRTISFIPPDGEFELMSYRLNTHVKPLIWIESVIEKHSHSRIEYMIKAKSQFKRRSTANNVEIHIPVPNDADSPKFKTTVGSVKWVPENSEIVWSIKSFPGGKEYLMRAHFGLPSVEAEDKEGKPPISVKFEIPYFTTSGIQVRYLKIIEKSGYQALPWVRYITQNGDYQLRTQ
UniProt Q9BQD7: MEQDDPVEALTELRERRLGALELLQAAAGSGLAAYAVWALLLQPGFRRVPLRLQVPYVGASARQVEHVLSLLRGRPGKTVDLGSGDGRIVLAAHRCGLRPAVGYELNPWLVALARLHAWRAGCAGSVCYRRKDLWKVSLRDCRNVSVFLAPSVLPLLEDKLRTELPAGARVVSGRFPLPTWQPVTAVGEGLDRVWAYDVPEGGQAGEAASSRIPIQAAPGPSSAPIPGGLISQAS
UniProt Q8IV38: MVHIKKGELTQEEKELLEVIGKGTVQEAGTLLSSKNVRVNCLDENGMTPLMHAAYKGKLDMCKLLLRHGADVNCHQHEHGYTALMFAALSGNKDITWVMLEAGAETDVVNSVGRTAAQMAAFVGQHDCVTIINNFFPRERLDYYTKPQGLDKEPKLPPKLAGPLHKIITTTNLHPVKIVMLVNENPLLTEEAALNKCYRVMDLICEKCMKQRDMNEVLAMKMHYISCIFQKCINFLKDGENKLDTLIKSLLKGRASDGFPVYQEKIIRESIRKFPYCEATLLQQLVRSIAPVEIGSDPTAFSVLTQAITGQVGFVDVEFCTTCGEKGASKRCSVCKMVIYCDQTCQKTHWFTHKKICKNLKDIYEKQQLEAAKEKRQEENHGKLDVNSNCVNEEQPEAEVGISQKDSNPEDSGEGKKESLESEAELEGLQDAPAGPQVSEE
UniProt Q6NXT1: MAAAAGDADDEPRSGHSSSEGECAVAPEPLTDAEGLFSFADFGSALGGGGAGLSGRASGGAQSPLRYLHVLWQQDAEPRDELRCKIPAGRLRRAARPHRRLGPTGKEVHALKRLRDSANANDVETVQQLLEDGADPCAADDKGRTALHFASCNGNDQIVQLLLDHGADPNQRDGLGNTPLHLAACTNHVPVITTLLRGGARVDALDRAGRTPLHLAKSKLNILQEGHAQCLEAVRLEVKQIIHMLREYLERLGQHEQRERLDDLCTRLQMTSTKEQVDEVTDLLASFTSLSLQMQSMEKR
UniProt Q92688: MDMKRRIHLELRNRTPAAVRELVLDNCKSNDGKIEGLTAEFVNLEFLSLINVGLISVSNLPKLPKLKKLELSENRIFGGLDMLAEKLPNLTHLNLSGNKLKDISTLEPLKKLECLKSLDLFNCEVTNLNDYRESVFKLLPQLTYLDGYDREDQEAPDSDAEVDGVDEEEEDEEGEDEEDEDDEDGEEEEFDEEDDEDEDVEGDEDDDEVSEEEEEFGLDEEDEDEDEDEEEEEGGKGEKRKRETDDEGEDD
UniProt Q9Y4X5: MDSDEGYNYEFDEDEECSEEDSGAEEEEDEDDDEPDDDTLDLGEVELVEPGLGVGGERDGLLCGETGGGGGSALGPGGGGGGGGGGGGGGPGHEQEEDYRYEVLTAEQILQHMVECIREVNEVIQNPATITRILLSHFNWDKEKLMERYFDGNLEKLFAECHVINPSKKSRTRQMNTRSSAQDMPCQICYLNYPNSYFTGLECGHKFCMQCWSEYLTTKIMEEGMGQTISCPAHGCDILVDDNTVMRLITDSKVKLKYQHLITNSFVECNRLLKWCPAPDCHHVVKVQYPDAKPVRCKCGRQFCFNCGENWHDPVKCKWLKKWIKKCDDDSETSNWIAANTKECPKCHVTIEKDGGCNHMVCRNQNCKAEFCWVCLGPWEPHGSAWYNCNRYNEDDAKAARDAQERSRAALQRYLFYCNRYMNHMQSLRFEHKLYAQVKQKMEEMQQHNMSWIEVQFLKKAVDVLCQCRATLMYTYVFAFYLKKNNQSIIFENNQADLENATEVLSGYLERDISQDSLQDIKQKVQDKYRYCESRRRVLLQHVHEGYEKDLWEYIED
UniProt P02654: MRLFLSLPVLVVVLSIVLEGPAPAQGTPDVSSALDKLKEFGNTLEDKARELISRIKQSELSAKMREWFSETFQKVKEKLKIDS
UniProt P84085: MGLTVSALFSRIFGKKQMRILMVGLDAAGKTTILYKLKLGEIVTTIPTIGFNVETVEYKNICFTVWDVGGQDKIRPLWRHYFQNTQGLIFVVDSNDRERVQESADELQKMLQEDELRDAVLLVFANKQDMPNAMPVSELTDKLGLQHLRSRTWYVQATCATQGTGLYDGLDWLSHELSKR
UniProt Q9P2R3: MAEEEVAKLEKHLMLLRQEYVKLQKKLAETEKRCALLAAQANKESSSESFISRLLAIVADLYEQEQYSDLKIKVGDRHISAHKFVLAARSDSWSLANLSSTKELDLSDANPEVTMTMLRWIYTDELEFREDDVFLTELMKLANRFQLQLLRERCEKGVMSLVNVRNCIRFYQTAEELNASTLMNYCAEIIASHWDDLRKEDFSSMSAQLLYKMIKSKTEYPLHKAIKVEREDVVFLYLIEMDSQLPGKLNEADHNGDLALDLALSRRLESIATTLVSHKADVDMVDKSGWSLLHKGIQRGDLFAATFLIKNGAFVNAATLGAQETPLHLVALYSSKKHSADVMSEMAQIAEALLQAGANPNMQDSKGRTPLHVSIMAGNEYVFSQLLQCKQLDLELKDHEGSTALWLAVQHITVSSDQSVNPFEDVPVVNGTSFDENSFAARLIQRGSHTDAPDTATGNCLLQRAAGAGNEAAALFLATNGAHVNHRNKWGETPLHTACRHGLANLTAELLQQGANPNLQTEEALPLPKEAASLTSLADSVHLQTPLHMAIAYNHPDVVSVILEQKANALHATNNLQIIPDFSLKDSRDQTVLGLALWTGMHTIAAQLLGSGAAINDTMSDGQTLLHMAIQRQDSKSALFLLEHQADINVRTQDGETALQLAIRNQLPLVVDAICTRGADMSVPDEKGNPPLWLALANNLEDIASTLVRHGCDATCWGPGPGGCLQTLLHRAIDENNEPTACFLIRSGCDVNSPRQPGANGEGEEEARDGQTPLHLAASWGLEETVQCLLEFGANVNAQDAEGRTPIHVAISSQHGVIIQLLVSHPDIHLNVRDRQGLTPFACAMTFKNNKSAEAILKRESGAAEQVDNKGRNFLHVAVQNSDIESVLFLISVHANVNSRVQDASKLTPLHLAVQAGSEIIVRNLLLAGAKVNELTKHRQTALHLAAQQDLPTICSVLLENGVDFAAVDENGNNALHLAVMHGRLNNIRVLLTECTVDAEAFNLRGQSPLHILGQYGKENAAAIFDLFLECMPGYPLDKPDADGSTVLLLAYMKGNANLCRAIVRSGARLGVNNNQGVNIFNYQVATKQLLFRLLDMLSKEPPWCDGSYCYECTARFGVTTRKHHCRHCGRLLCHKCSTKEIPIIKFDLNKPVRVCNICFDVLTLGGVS
UniProt Q9NP61: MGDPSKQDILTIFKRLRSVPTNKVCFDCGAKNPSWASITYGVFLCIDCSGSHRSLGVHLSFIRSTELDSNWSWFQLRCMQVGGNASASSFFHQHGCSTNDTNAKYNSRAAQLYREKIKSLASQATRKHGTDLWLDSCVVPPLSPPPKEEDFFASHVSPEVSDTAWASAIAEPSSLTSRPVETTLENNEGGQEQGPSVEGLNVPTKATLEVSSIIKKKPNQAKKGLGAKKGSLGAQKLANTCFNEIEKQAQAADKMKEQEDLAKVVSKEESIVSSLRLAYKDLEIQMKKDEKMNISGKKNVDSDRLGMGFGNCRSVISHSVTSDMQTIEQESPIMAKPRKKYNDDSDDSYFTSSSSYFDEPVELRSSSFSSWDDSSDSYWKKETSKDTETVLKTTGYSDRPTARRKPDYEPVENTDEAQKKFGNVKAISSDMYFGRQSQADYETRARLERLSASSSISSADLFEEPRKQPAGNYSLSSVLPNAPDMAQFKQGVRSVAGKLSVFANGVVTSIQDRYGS
UniProt Q92974: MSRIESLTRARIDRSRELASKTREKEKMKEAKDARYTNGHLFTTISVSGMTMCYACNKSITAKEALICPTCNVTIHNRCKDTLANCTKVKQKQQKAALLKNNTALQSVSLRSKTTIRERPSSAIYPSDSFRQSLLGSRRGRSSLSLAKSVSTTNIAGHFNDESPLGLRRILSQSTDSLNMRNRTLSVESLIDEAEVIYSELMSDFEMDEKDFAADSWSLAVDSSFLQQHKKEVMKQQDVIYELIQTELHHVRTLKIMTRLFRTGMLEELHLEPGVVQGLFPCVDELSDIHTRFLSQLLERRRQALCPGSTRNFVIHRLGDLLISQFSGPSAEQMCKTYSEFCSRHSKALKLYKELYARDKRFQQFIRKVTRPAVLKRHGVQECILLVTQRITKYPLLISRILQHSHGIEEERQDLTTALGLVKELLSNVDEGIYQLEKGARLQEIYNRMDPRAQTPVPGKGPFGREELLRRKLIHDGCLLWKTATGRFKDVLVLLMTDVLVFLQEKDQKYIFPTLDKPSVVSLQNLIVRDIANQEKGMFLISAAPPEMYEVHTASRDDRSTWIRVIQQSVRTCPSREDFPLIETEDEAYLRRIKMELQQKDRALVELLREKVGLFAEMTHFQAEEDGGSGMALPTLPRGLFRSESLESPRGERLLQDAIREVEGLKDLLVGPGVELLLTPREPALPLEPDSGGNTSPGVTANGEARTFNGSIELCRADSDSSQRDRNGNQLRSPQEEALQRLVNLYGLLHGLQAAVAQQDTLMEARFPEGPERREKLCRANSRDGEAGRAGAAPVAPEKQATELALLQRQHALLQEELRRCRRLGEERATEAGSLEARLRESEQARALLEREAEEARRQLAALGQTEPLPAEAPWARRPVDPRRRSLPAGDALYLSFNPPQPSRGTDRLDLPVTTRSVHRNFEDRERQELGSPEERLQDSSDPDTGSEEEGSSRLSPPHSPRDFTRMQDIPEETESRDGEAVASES
UniProt Q9HDC9: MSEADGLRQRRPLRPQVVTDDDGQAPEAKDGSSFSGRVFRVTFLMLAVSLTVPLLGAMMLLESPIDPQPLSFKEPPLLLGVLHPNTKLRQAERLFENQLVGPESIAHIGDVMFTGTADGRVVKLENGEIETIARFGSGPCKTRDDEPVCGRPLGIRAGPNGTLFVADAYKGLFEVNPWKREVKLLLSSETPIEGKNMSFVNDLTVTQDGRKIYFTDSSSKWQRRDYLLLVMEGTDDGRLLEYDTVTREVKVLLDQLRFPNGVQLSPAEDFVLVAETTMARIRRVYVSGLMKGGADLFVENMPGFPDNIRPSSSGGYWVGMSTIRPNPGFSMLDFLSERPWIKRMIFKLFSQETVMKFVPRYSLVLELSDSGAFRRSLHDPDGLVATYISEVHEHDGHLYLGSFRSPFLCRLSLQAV

Each target was assayed with CC1=C(C(CC(=O)N1)C2=CC=C(C=C2)C(F)(F)F)C(=O)NC3=C(C=C4C(=C3)C=NN4)F (assay: log2 fold change, soluble protein after heating vs DMSO (PISA); higher = thermal stabilisation; K562 cells, 10 uM, 30 min; active = over 0.2 and 3.5 SD of the protein, either way, in both replicates (recomputed)).
Outline: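 Thermal stability values are relative to control samples and come from duplicates. They are expressed as log2 fold changes. For measurement, K562 cells (2×10^6 cells/mL) received 10 μM compound for 30 min, and aliquots were heated for 3 min over 48°C-58°C, pooled, and extracted at 4°C in PBS with 0.5% NP-40. Soluble protein, the supernatant after 21,000xg for 90 min, was quantified by TMTpro 16plex LC-MS/MS with equalised channel sums.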
ANXA11 (UniProt P50995) was tested, and the log2 fold change was inactive: -0.023. In the case of ARF1 (UniProt P84077), the log2 fold change is reported as inactive: -0.056. ARCN1 (UniProt P48444) was tested, and the log2 fold change was inactive: 0.01. With AP1M1 (UniProt Q9BXS5) the log2 fold change was inactive: -0.01. For ANTKMT (UniProt Q9BQD7), the log2 fold change was inactive: -0.05. ANK3 (UniProt Q12955) was tested, and the log2 fold change was inactive: 0.035. In the case of ANKMY2 (UniProt Q8IV38), the log2 fold change is reported as inactive: 0.002. In the case of ANAPC16 (UniProt Q96DE5), the log2 fold change is reported as inactive: 0.026. With ANKRD54 (UniProt Q6NXT1) the log2 fold change was inactive: -0.042. In the case of ANP32B (UniProt Q92688), the log2 fold change is reported as inactive: 0.039. For ARIH1 (UniProt Q9Y4X5), the log2 fold change was inactive: 0.069. In the case of APOC1 (UniProt P02654), the log2 fold change is reported as inactive: 0.045. With ANXA6 (UniProt P08133) the log2 fold change was inactive: 0.012. For ARF3 (UniProt P61204), the log2 fold change was inactive: -0.008. ARHGDIA (UniProt P52565) was tested, and the log2 fold change was inactive: -0.032. With ARF5 (UniProt P84085) the log2 fold change was inactive: -0.028. With ANKFY1 isoform 4 (UniProt Q9P2R3) the log2 fold change was inactive: 0.073. In the case of API5 isoform 2 (UniProt Q9BZZ5), the log2 fold change is reported as inactive: 0.018. In the case of ANXA4 (UniProt P09525), the log2 fold change is reported as inactive: -0.031. In the case of ARHGAP18 (UniProt Q8N392), the log2 fold change is reported as inactive: -0.025. With ANXA2 isoform 2 (UniProt P07355) the log2 fold change was inactive: -0.045. In the case of ARFGAP3 (UniProt Q9NP61), the log2 fold change is reported as inactive: 0.006. For APEH (UniProt P13798), the log2 fold change was inactive: -0.004. For ARHGEF2 (UniProt Q92974), the log2 fold change was inactive: -0.023. In the case of APOBEC3C (UniProt Q9NRW3), the log2 fold change is reported as inactive: -0.039. With API5 (UniProt Q9BZZ5) the log2 fold change was inactive: -0.018. In the case of ANKHD1 isoform 6 (UniProt Q8IWZ3), the log2 fold change is reported as inactive: 0.038. For AP3S1 (UniProt Q92572), the log2 fold change was inactive: 0.007. With ANO6 isoform 2 (UniProt Q4KMQ2) the log2 fold change was inactive: -0.038. For APMAP (UniProt Q9HDC9), the log2 fold change was inactive: 0.02. In the case of APOO (UniProt Q9BUR5), the log2 fold change is reported as inactive: -0.012. ARHGAP45 isoform 2 (UniProt Q92619) was tested, and the log2 fold change was inactive: 0.048.
